Assay results as given in PubChem BioAssay (Tox21).
Values joined by “and” are separate entries in the source; they are usually repeats but may differ in a detail not shown here. Equal entries are not always repeated. Inconclusive means that the source gave no clear call. Such entries were picked first, then a sample of the others. Potencies of inconclusive entries are doubtful fits and often do not repeat. More than one record can exist for a structure, and the calls need not agree. Active and inactive are the calls of the source. The call rests on the fitted dose curve; in most records, active means well fitted inhibition curve with a large enough effect in the repeat runs; inconclusive means weak or mixed curves; inactive means no such curve, though single readings can be large or run the other way.

Protein sequences, listed by entry. Tags and fused reporters are not part of them.
UniProt P10635, whole entry, looked up: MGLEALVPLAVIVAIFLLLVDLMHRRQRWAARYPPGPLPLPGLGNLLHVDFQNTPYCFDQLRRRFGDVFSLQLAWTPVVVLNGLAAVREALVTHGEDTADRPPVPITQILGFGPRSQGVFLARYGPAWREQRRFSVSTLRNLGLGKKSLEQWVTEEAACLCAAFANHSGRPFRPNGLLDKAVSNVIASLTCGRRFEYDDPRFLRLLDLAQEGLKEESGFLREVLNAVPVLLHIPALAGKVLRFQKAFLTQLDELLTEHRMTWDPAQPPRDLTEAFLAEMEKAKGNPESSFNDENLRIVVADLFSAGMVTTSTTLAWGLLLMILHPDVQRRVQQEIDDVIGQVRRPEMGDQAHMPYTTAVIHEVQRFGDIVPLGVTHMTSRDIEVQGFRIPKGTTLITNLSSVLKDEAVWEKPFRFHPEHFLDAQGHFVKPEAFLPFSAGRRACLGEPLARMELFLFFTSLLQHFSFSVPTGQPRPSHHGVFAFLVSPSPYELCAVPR

biological target: Cytochrome P450 2D6 (Homo sapiens) (UniProt P10635); test: Cytochrome P450 Family 2 Subfamily D Member 6 (CYP2D6) small molecule antagonists: luciferase reporter qHTS assay (AID 1671196); conditions: P450-Glo CYP2D6 enzyme assay, luciferin luminescence, 1 h; series mostly up to 115 µM; activity change, negative = inhibition: at the top concentration; further: nearly all actives have a fitted effect of over 50% in size
Excerpt: U.S. Tox21 Program National Center for Advancing Translational Sciences [NCATS] U.S. Environmental Protection Agency [EPA] National Institutes of Environmental Health Sciences [NIEHS] National Toxicology Program [NTP] U.S. Food and Drug Administration [FDA] Tox21 Assay Overview: Cytochrome P450 (CYP) enzymes are membrane-bound hemeproteins that play a key role in metabolism of drugs and xenobiotics. Evaluation of the effect of chemicals on CYP isozymes is useful to minimize the adverse drug reactions and toxicities in drug development process. Tox21 chemicals were tested for their effect on CYP enzyme activities by using P450-Glo (TM) screening systems (Promega Corporation, Madison, WI). These systems provide a luminescent method containing proluciferin substrates and are converted to luciferin products by CYP isozymes. The luciferin products formed are detected with a luciferin detection reagent, and the amount of light produced is proportional to CYP activity. P450-Glo (TM) CYP2D6 screening system (Catalog. No. V9890) was used to detect the compounds that interfere in CYP2D6 activity.
Tox21 Assay Protocol Summary: Two ul of enzyme-substrate mix was dispensed into medium binding white/solid 1536-well plates (Greiner Bio-One North America Inc., Monroe, NC) using a BioRaptr Flying Reagent Dispenser (FRD, Beckman Coulter, Brea, CA). […] The assay plates were incubated at room temperature for 10 min. Then 2 ul of NADPH regeneration solution was added to each well of the assay plates using an FRD and incubated at room temperature for 1 h. The reaction was stopped by adding 4 ul of detection reagent using an FRD and after 20 min incubation at room temperature the luminescence signal was measured using a ViewLux plate reader (Perkin Elmer, Shelton, CT). Data were expressed as relative luminescence units.
On the % scale 0 is the no-effect control and ±100 the full control effect; potency means the concentration at half of the fitted maximal effect.

Structure (SMILES)	Potency	activity change, negative = inhibition
C=CCOc1c(Br)cc(Br)cc1Br	inconclusive: 35.6 µM [inhibitor, single point]	–
Cc1c[nH]c(=O)[nH]c1=O	–	inactive: -7.05%
OCCCO	–	inactive: 0.783%
Oc1c(Cl)ccc(Cl)c1Cl	inconclusive: 79.5 µM [inhibitor, partial curve, poor fit]	–
O=C(Nc1ccccc1)c1cc([N+](=O)[O-])ccc1Cl	inconclusive: 44.8 µM [inhibitor, partial curve]	–
F[B-](F)(F)F	inconclusive: 71.6 µM [inhibitor, single point] and inconclusive: 89.4 µM [inhibitor, partial curve, poor fit]	–
O=C(c1ccccc1)C(O)c1ccccc1 (stereo not given)	inconclusive: 19.5 µM [inhibitor, partial curve]	–
CCOC(=O)NNc1nncc2ccccc12	inconclusive: 27.5 µM [inhibitor, partial curve]	–
CN1CCN(C2=Nc3ccccc3Sc3ccc(Cl)cc32)CC1	active: 15.5 µM	–
CCCCCCCCS(=O)(=O)Cl	inconclusive: 40.3 µM [inhibitor, partial curve, poor fit]	–
O=C(CCCl)NCCc1ccccc1	inconclusive: 30.9 µM [inhibitor, partial curve]	–
Cc1cc(NC(=O)C(=O)O)cc(C)c1Oc1ccc(O)c2c1CCC2	inconclusive: 71 µM [inhibitor, partial curve]	–
O=C(NCCO[N+](=O)[O-])c1cccnc1	inconclusive: 6.92 µM [inhibitor, full curve, poor fit]	–
CC(=O)c1sc(C)nc1C	–	inactive: -6.89%
O=S1OCCO1	–	inactive: -19.2%
CCCCCCOCCO	inconclusive: 80.6 µM [inhibitor, partial curve, poor fit]	–
CCS(=O)(=O)c1ccc(OC)c(C(=O)OC)c1	–	inactive: 1.19% [at 53 µM]
OCCc1ccncc1	inconclusive: 35.6 µM [inhibitor, partial curve]	–
Cc1ccccc1C(=O)Nc1ccc(C(=O)N2CCCC(O)c3cc(Cl)ccc32)c(C)c1 (stereo not given)	inconclusive: 13.8 µM [inhibitor, full curve]	–
Nc1ncn([C@H]2C[C@H](O)[C@@H](CO)O2)c(=O)n1	–	inactive: -3.58% [at 53 µM]

Fetched by structure from the list above, 2 records:
Structure (SMILES)	Potency	activity change, negative = inhibition
CC(=O)c1sc(C)nc1C	–	inactive: -6.89%
CN1CCN(C2=Nc3ccccc3Sc3ccc(Cl)cc32)CC1	active: 15.5 µM	–

Additional entries.

Structure (SMILES)	Potency	activity change, negative = inhibition
C=CCOC(=O)c1ccc(C(=O)OCC=C)c(C(=O)OCC=C)c1	inconclusive: 35.6 µM [inhibitor, partial curve]	–
Cc1cccc(OCC(O)CNC(C)(C)C)c1C (stereo not given)	active: 13.8 µM	–
C=C(C)C(=O)OCC	–	inactive: -2.97%
CC(C)C(=O)OCC(C)(C)C(O)C(C)C (stereo not given)	–	inactive: -1.6%
CC(=O)OC(C)(C)C	inconclusive: 22.4 µM [inhibitor, partial curve]	–
O=C1c2cccc(O)c2C(=O)c2c(O)cc(CO)cc21	–	inactive: -6.46%
O=S(=O)(O)CC(O)CCl (stereo not given)	–	inactive: -4.08%
c1ccc(OCc2ccc(CCCN3CCOCC3)cc2)cc1	active: 15.5 µM	–
O=C(O)c1cc(N=Nc2ccc(S(=O)(=O)Nc3ccccn3)cc2)ccc1O	inconclusive: 39.9 µM [inhibitor, partial curve] and inconclusive: 30.9 µM [inhibitor, partial curve]	–
N#CCC(=O)NN	–	inactive: -0.779% [at 53 µM]
CCN(CC)c1cccc(C)c1	inconclusive: 89.4 µM [inhibitor, partial curve, poor fit]	–
O=S(=O)(c1ccccc1)c1ccc(Cl)cc1	inconclusive: 89.4 µM [inhibitor, partial curve, poor fit]	–
CCCN1C=CN(C)C1	inconclusive: 80 µM [inhibitor]	–
C/C(=N\O)[C@@H](C)NCC(C)(C)CN[C@H](C)/C(C)=N/O	inconclusive: 17.4 µM [inhibitor, partial curve]	–
Nc1cc(S(=O)(=O)O)ccc1S(=O)(=O)O	–	inactive: -24%
C=C(C)c1cccc(C(C)(C)N=C=O)c1	inconclusive: 39.9 µM [inhibitor, partial curve]	–
CC1CCC(C(C)(C)O)CC1 (stereo not given)	inconclusive: 3.17 µM [inhibitor, single point]	–
CCCCOCCOCCOCCOCCO	inconclusive: 63.3 µM [inhibitor, partial curve, poor fit]	–
COc1ccc([C@@H]2Sc3ccccc3NC(=O)[C@@H]2O)cc1	inconclusive: 38.9 µM [inhibitor, partial curve]	–
O=c1c2ccccc2oc2ccccc12	–	inactive: -17.2%
